{"source": "the supplement of paper PMC8728848", "binders": {"B1": {"name": "PEB3 (Campylobacter jejuni), Q0PBL7 (protein)", "chain": "MKKIITLFGACALAFSMANADVNLYGPGGPHTALKDIANKYSEKTGVKVNVNFGPQATWFEKAKKDADILFGASDQSALAIASDFGKDFNVSKIKPLYFREAIILTQKGNPLKIKGLKDLANKKVRIVVPEGAGKSNTSGTGVWEDMIGRTQDIKTIQNFRNNIVAFVPNSGSARKLFAQDQADAWITWIDWSKSNPDIGTAVAIEKDLVVYRTFNVIAKEGASKETQDFIAYLSSKEAKEIFKKYGWRE"}}, "assay_in_all_cases": "glycan array binding signal (z-score within array); higher = stronger binding", "settings_in_all_cases": "glycan notation: IUPAC condensed, linker removed", "key": {"[1]": {"molecular_target": "Fuc(a1-2)[Gal(a1-4)]Gal(b1-4)GlcNAc", "outline": "(§1)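 The Consortium for Functional Glycomics database supplied 3228 glycan arrays, of which those lacking an available protein sequence were dropped. The binding signal, a within-array Z-score, was averaged across arrays of the same protein sequence and across linkers. Negative scores can be read as non-binding.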"}, "[2]": {"molecular_target": "Fuc(a1-2)[GalNAc(a1-3)]Gal", "outline": "as §1"}, "[3]": {"molecular_target": "Fuc(a1-2)[GalNAc(a1-3)]Gal(b1-3)GalNAc(a1-3)[Fuc(a1-2)]Gal(b1-4)GlcNAc", "outline": "as §1"}, "[4]": {"molecular_target": "Fuc(a1-2)[GalNAc(a1-3)]Gal(b1-3)GlcNAc", "outline": "as §1"}, "[5]": {"molecular_target": "Fuc(a1-2)[GalNAc(a1-3)]Gal(b1-3)GlcNAc(b1-2)Man(a1-3)[Fuc(a1-2)[GalNAc(a1-3)]Gal(b1-3)GlcNAc(b1-2)Man(a1-6)]Man(b1-4)GlcNAc(b1-4)GlcNAc", "outline": "as §1"}, "[6]": {"molecular_target": "Fuc(a1-2)[GalNAc(a1-3)]Gal(b1-4)Glc", "outline": "as §1"}, "[7]": {"molecular_target": "Fuc(a1-2)[GalNAc(a1-3)]Gal(b1-4)GlcNAc", "outline": "as §1"}, "[8]": {"molecular_target": "Fuc(a1-2)[GalNAc(a1-3)]Gal(b1-4)GlcNAc(b1-2)Man(a1-3)[Fuc(a1-2)[GalNAc(a1-3)]Gal(b1-4)GlcNAc(b1-2)Man(a1-6)]Man(b1-4)GlcNAc(b1-4)GlcNAc", "outline": "as §1"}, "[9]": {"molecular_target": "Fuc(a1-2)[GalNAc(a1-3)]Gal(b1-4)GlcNAc(b1-3)Gal(b1-4)GlcNAc", "outline": "as §1"}, "[10]": {"molecular_target": "Fuc(a1-2)[GalNAc(a1-3)]Gal(b1-4)GlcNAc(b1-3)Gal(b1-4)GlcNAc(b1-3)Gal(b1-4)GlcNAc", "outline": "as §1"}, "[11]": {"molecular_target": "Fuc(a1-2)[GalNAc(a1-3)]Gal(b1-4)[Fuc(a1-3)]GlcNAc", "outline": "as §1"}, "[12]": {"molecular_target": "Fuc(a1-2)[GalNAc(a1-4)]Gal(b1-4)GlcNAc", "outline": "as §1"}, "[13]": {"molecular_target": "Fuc(a1-2)[GalNAc(b1-3)]Gal", "outline": "as §1"}, "Fuc(a1-3)GlcNAc": {"molecular_target": "Fuc(a1-3)GlcNAc", "outline": "as §1"}, "[14]": {"molecular_target": "Fuc(a1-3)[Gal(b1-4)]Glc6S", "outline": "as §1"}, "[15]": {"molecular_target": "Fuc(a1-3)[Gal(b1-4)]GlcNAc", "outline": "as §1"}, "[16]": {"molecular_target": "Fuc(a1-3)[Gal(b1-4)]GlcNAc(b1-2)Man(a1-3)[Fuc(a1-3)[Gal(b1-4)]GlcNAc(b1-2)Man(a1-6)]Man(b1-4)GlcNAc(b1-4)GlcNAc", "outline": "as §1"}, "[17]": {"molecular_target": "Fuc(a1-3)[Gal(b1-4)]GlcNAc(b1-3)Gal(b1-3)[Fuc(a1-4)]GlcNAc", "outline": "as §1"}, "[18]": {"molecular_target": "Fuc(a1-3)[Gal(b1-4)]GlcNAc(b1-3)GalNAc", "outline": "as §1"}, "[19]": {"molecular_target": "Fuc(a1-3)[Gal(b1-4)]GlcNAc(b1-4)Gal(b1-4)[Fuc(a1-3)]GlcNAc", "outline": "as §1"}, "[20]": {"molecular_target": "Fuc(a1-3)[Gal(b1-4)]GlcNAc(b1-4)Gal(b1-4)[Fuc(a1-3)]GlcNAc(b1-4)Gal(b1-4)[Fuc(a1-3)]GlcNAc", "outline": "as §1"}, "[21]": {"molecular_target": "Fuc(a1-3)[Gal(b1-4)]GlcNAc(b1-6)[Gal(b1-3)GlcNAc(b1-3)]Gal(b1-4)Glc", "outline": "as §1"}, "[22]": {"molecular_target": "Fuc(a1-3)[Gal(b1-4)]GlcNAc6S", "outline": "as §1"}, "[23]": {"molecular_target": "Fuc(a1-3)[Gal3S(b1-4)]GlcNAc", "outline": "as §1"}, "[24]": {"molecular_target": "Fuc(a1-3)[Gal3S(b1-4)]GlcNAc6S", "outline": "as §1"}, "[25]": {"molecular_target": "Fuc(a1-3)[GalNAc(b1-4)]GlcNAc", "outline": "as §1"}, "Fuc(a1-4)GlcNAc": {"molecular_target": "Fuc(a1-4)GlcNAc", "outline": "as §1"}, "Fuc(b1-3)GlcNAc": {"molecular_target": "Fuc(b1-3)GlcNAc", "outline": "as §1"}, "Gal(a1-2)Gal": {"molecular_target": "Gal(a1-2)Gal", "outline": "as §1"}, "Gal(a1-3)Gal": {"molecular_target": "Gal(a1-3)Gal", "outline": "as §1"}, "Gal(a1-3)Gal(b1-3)GlcNAc": {"molecular_target": "Gal(a1-3)Gal(b1-3)GlcNAc", "outline": "as §1"}, "[26]": {"molecular_target": "Gal(a1-3)Gal(b1-3)GlcNAc(b1-2)Man(a1-3)[Gal(a1-3)Gal(b1-3)GlcNAc(b1-2)Man(a1-6)]Man(b1-4)GlcNAc(b1-4)GlcNAc", "outline": "as §1"}, "[27]": {"molecular_target": "Gal(a1-3)Gal(b1-3)[Fuc(a1-4)]GlcNAc(b1-2)Man(a1-3)[Gal(a1-3)Gal(b1-3)[Fuc(a1-4)]GlcNAc(b1-2)Man(a1-6)]Man(b1-4)GlcNAc(b1-4)GlcNAc", "outline": "as §1"}, "Gal(a1-3)Gal(b1-4)Glc": {"molecular_target": "Gal(a1-3)Gal(b1-4)Glc", "outline": "as §1"}, "Gal(a1-3)Gal(b1-4)GlcNAc": {"molecular_target": "Gal(a1-3)Gal(b1-4)GlcNAc", "outline": "as §1"}, "[28]": {"molecular_target": "Gal(a1-3)Gal(b1-4)GlcNAc(b1-3)GalNAc", "outline": "as §1"}, "[29]": {"molecular_target": "Gal(a1-3)Gal(b1-4)[Fuc(a1-3)]GlcNAc", "outline": "as §1"}, "[30]": {"molecular_target": "Gal(a1-3)Gal(b1-4)[Fuc(a1-3)]GlcNAc(b1-2)Man(a1-3)[Gal(a1-3)Gal(b1-4)[Fuc(a1-3)]GlcNAc(b1-2)Man(a1-6)]Man(b1-4)GlcNAc(b1-4)GlcNAc", "outline": "as §1"}}, "note": "The list shows a part of the results."}
{"binder": "B1", "values": [{"measurement": "glycan array binding signal (z-score)", "setting": "[1]", "result": -0.346}, {"measurement": "glycan array binding signal (z-score)", "setting": "[2]", "result": 0.501}, {"measurement": "glycan array binding signal (z-score)", "setting": "[3]", "result": -0.664}, {"measurement": "glycan array binding signal (z-score)", "setting": "[4]", "result": 1}, {"measurement": "glycan array binding signal (z-score)", "setting": "[5]", "result": -0.335}, {"measurement": "glycan array binding signal (z-score)", "setting": "[6]", "result": -0.709}, {"measurement": "glycan array binding signal (z-score)", "setting": "[7]", "result": -0.483}, {"measurement": "glycan array binding signal (z-score)", "setting": "[8]", "result": -0.164}, {"measurement": "glycan array binding signal (z-score)", "setting": "[9]", "result": -0.54}, {"measurement": "glycan array binding signal (z-score)", "setting": "[10]", "result": 0.771}, {"measurement": "glycan array binding signal (z-score)", "setting": "[11]", "result": 1.79}, {"measurement": "glycan array binding signal (z-score)", "setting": "[12]", "result": -0.571}, {"measurement": "glycan array binding signal (z-score)", "setting": "[13]", "result": -0.27}, {"measurement": "glycan array binding signal (z-score)", "setting": "Fuc(a1-3)GlcNAc", "result": -0.459}, {"measurement": "glycan array binding signal (z-score)", "setting": "[14]", "result": 0.99}, {"measurement": "glycan array binding signal (z-score)", "setting": "[15]", "result": 0.494}, {"measurement": "glycan array binding signal (z-score)", "setting": "[16]", "result": -0.554}, {"measurement": "glycan array binding signal (z-score)", "setting": "[17]", "result": 0.359}, {"measurement": "glycan array binding signal (z-score)", "setting": "[18]", "result": -0.964}, {"measurement": "glycan array binding signal (z-score)", "setting": "[19]", "result": 1.05}, {"measurement": "glycan array binding signal (z-score)", "setting": "[20]", "result": 0.144}, {"measurement": "glycan array binding signal (z-score)", "setting": "[21]", "result": -1.02}, {"measurement": "glycan array binding signal (z-score)", "setting": "[22]", "result": 0.763}, {"measurement": "glycan array binding signal (z-score)", "setting": "[23]", "result": 0.309}, {"measurement": "glycan array binding signal (z-score)", "setting": "[24]", "result": 0.696}, {"measurement": "glycan array binding signal (z-score)", "setting": "[25]", "result": -0.565}, {"measurement": "glycan array binding signal (z-score)", "setting": "Fuc(a1-4)GlcNAc", "result": -0.82}, {"measurement": "glycan array binding signal (z-score)", "setting": "Fuc(b1-3)GlcNAc", "result": -0.162}, {"measurement": "glycan array binding signal (z-score)", "setting": "Gal(a1-2)Gal", "result": 0.019}, {"measurement": "glycan array binding signal (z-score)", "setting": "Gal(a1-3)Gal", "result": -0.384}, {"measurement": "glycan array binding signal (z-score)", "setting": "Gal(a1-3)Gal(b1-3)GlcNAc", "result": 0.021}, {"measurement": "glycan array binding signal (z-score)", "setting": "[26]", "result": 0.243}, {"measurement": "glycan array binding signal (z-score)", "setting": "[27]", "result": 4.25}, {"measurement": "glycan array binding signal (z-score)", "setting": "Gal(a1-3)Gal(b1-4)Glc", "result": 1.33}, {"measurement": "glycan array binding signal (z-score)", "setting": "Gal(a1-3)Gal(b1-4)GlcNAc", "result": -0.495}, {"measurement": "glycan array binding signal (z-score)", "setting": "[28]", "result": 0.06}, {"measurement": "glycan array binding signal (z-score)", "setting": "[29]", "result": 0.154}, {"measurement": "glycan array binding signal (z-score)", "setting": "[30]", "result": 0.06}]}
